According to the supplement of paper PMC10849652:
Some of the results follow.

Chains of the proteins cited; added tags and fusions are not shown. Lines headed by an entry give the natural chain unless they say otherwise; changes in a name come on top.
UniProt P30281: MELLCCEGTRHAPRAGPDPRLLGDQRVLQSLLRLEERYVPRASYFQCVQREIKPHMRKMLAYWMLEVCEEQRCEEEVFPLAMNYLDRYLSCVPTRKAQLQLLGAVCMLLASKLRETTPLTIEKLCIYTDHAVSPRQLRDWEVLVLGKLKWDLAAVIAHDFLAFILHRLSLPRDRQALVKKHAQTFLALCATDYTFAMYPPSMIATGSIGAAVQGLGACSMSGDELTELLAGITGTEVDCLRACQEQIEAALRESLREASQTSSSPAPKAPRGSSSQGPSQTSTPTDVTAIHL
UniProt P13994: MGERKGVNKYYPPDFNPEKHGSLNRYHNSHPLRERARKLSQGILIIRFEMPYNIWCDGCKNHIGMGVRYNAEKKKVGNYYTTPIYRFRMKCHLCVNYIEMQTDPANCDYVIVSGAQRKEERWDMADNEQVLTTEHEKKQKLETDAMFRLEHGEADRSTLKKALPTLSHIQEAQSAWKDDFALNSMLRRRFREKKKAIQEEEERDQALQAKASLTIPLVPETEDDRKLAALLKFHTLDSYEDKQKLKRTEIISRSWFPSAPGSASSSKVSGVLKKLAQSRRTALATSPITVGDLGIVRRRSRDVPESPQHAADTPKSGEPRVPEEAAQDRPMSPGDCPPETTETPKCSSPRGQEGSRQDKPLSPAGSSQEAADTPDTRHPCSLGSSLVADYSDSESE
UniProt P51636: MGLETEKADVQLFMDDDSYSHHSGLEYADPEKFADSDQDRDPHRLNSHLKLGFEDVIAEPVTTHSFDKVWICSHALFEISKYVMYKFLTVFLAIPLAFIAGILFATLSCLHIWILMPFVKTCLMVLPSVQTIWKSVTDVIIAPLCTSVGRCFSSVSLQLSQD
UniProt P33681, whole entry, looked up: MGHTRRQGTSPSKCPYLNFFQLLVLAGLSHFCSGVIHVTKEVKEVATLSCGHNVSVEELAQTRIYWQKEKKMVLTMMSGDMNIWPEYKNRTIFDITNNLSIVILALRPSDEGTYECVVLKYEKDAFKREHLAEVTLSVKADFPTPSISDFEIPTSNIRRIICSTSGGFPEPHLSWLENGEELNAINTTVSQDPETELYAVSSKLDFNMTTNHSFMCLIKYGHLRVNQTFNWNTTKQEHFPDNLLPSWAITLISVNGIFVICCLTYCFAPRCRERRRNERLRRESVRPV
UniProt Q5ZPR3: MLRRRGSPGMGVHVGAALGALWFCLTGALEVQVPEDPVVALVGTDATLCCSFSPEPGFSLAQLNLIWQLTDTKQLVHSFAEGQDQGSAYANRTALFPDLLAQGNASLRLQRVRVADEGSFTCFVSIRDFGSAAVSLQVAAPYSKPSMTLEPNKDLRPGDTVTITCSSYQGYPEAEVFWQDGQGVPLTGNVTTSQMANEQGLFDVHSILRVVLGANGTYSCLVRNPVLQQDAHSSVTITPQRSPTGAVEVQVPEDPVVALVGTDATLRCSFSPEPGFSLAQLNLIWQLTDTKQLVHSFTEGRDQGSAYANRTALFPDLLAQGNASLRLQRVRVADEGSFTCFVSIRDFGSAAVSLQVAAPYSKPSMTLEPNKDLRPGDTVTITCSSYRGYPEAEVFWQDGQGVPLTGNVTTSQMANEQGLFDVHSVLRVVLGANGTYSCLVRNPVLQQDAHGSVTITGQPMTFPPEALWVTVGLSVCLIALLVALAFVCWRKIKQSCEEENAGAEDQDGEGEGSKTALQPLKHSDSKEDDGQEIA
UniProt P34810: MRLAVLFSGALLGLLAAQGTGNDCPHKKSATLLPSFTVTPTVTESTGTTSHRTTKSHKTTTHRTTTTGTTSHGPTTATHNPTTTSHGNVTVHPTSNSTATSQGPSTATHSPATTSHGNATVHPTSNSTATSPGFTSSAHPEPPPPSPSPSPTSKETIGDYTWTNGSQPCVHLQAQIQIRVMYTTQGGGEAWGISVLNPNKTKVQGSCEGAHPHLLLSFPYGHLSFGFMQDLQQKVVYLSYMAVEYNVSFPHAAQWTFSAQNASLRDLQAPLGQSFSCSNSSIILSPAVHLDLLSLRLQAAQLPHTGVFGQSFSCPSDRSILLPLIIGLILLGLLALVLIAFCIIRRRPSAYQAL
UniProt Q96BQ5: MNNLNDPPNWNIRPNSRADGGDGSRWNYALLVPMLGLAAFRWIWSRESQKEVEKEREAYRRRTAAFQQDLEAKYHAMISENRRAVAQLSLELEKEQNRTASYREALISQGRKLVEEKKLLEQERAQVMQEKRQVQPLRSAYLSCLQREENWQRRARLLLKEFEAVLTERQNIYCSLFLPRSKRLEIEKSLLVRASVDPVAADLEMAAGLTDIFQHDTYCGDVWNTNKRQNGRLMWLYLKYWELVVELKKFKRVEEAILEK
UniProt O43303: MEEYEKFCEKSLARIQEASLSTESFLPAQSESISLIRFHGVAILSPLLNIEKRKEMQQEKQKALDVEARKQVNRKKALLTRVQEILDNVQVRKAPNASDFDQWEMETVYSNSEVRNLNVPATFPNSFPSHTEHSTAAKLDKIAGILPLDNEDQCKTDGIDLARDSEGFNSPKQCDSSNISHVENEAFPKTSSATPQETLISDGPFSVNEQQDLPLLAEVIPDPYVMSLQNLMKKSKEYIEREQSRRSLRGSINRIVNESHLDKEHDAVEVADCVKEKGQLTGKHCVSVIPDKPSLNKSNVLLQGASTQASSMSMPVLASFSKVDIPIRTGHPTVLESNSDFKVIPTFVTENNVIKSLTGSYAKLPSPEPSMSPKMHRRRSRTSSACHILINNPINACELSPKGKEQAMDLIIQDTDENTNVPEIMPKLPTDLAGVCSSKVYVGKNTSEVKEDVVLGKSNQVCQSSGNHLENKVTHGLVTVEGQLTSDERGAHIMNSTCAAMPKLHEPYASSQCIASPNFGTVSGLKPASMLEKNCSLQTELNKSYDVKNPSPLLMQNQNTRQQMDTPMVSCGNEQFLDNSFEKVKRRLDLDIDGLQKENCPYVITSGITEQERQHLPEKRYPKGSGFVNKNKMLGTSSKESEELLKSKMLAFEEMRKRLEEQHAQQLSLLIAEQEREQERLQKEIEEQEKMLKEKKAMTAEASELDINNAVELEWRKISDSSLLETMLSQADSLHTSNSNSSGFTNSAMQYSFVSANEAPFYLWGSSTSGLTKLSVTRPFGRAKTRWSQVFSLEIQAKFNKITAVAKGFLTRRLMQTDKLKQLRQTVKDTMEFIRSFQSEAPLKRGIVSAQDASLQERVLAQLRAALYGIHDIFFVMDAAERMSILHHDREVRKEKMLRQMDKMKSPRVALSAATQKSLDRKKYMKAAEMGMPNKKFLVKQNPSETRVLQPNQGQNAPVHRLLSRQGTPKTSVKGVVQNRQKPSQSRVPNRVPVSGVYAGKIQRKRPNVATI
UniProt Q04900: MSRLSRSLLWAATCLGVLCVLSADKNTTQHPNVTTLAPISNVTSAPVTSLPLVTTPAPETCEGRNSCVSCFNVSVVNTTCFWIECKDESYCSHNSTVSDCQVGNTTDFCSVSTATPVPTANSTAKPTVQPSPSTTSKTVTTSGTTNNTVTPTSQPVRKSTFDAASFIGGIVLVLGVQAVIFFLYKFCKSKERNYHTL
UniProt Q8IVM0: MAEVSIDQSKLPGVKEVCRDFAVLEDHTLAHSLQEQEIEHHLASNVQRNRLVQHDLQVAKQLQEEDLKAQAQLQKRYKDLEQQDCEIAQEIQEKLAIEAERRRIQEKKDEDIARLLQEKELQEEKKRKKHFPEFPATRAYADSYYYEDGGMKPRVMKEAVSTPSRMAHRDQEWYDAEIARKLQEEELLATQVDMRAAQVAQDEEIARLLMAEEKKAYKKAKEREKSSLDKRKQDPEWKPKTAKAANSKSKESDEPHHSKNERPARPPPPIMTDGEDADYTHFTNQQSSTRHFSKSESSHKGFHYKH
UniProt Q96A19: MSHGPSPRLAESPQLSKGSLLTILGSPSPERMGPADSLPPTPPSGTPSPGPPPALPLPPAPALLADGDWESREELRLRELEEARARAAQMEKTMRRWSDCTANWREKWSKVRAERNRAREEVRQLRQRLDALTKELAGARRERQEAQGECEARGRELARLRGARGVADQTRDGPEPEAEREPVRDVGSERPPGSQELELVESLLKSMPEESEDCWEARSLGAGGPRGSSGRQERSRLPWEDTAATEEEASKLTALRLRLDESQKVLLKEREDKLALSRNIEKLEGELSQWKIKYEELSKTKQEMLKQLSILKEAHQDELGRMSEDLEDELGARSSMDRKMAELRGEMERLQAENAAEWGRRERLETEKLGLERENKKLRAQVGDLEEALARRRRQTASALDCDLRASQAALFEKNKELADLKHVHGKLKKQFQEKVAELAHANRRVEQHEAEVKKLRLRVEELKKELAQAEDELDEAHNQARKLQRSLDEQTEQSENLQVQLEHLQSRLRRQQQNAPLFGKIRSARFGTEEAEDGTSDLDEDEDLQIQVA
UniProt P19397: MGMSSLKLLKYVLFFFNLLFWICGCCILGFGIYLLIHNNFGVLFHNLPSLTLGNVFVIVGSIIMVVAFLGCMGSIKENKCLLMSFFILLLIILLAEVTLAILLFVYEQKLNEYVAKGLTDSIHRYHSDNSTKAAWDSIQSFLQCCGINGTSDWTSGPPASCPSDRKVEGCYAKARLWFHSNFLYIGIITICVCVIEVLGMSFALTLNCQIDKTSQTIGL
UniProt P16070: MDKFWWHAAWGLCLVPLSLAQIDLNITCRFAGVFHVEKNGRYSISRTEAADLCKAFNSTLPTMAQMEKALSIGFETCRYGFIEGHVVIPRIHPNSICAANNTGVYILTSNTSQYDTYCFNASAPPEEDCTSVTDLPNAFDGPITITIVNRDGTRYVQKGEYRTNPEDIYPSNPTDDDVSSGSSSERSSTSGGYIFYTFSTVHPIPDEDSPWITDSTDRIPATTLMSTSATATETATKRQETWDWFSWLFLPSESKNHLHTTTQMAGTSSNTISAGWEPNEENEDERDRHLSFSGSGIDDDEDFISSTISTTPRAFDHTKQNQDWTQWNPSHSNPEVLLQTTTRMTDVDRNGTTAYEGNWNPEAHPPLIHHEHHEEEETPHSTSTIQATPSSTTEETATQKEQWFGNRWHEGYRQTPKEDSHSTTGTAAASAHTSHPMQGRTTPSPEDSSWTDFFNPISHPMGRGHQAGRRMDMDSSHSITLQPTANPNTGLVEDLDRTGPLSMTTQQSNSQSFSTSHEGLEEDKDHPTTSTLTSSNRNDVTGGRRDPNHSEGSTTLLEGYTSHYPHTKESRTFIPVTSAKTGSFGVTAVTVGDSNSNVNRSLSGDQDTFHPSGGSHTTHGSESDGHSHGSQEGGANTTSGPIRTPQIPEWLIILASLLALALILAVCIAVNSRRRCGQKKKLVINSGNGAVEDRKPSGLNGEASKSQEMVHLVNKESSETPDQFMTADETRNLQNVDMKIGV

Key:
Assay in all cases: log2 fold change, soluble protein after heating vs DMSO (PISA); higher = thermal stabilisation; K562 lysate, 10 uM; active = over 0.2 and 3.5 SD of the protein, either way, in both replicates (recomputed)
erlotinib = compound: C#Cc1cccc(Nc2ncnc3cc(OCCOC)c(OCCOC)cc23)c1 [erlotinib]
Method in brief: (§1)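 K562 pellets were dounce-homogenised in PBS pH 7.4 with 1 mM MgCl2, and the crude extract at 1 mg/mL protein was treated with 10 μM compound for 30 min. Aliquots were heated for 3 min across 48°C-58°C, pooled, and brought to 0.5% NP-40 at 4°C; soluble protein was the supernatant after 21,000xg for 90 min. Soluble protein was quantified by TMTpro 16plex LC-MS/MS with channel sums equalised, and reported as log2 fold change in thermal stability against DMSO controls, with values from duplicates.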

[1] = compound: C1=CC(=CC=C1C2=NC3=C(N2)C=C(C=C3)C(=O)N)OC4=CC=C(C=C4)Cl
Method in brief: as §1

[2] = compound: C1=CC2=NC=CN=C2C=C1/C=C/3\C(=O)NC(=O)S3
Method in brief: as §1

[3] = compound: C1=CC=C(C=C1)C2=NC(=C(N2)C3=CC=NC=C3)C4=CC(=C(C=C4)Cl)O
Method in brief: as §1

[4] = compound: C1CCN(C1)C(=O)NC2=CC=CC(=C2)NC3=NC=C(C(=N3)NCCC4=CN=CN4)Br
Method in brief: as §1

[5] = compound: C1CN(CCC1(CC2=CC=C(C=C2)Cl)N)C3=NC=NC4=C3C=CN4
Method in brief: as §1

IRAK-1-4 Inhibitor I = compound: C1COCCN1CCN2C3=CC=CC=C3N=C2NC(=O)C4=CC(=CC=C4)[N+](=O)[O-] [IRAK-1-4 Inhibitor I]
Method in brief: as §1

ibrutinib = compound: C=CC(=O)N1CCC[C@@H](n2nc(-c3ccc(Oc4ccccc4)cc3)c3c(N)ncnc32)C1 [ibrutinib]
Method in brief: as §1

ralimetinib = compound: CC(C)(C)Cn1c(N)nc2ccc(-c3[nH]c(C(C)(C)C)nc3-c3ccc(F)cc3)nc21 [ralimetinib]
Method in brief: as §1

[6] = compound: CC(C)(O)CC(=O)NCCn1ccc2ncnc(Nc3ccc(Oc4cccc(C(F)(F)F)c4)c(Cl)c3)c21
Method in brief: as §1

[7] = compound: CC(C)C1=C2N=C(C=C(N2N=C1)NCC3=CC=CC=C3)NCCCCCCN
Method in brief: as §1

[8] = compound: CC1=C(C(CC(=O)N1)C2=CC=C(C=C2)C(F)(F)F)C(=O)NC3=C(C=C4C(=C3)C=NN4)F
Method in brief: as §1

[9] = compound: CC1=C(C2=C(C=C1)C(=O)C3=CC=CC=C3N2CCCN)C
Method in brief: as §1

[10] = compound: CC1=C(C=C(C=C1)NC(=O)C2=CC(=CC=C2)C(C)(C)C#N)NC3=CC4=C(C=C3)N=CN(C4=O)C
Method in brief: as §1

[11] = compound: CC1=C(C=C(C=C1)NC(=O)C2=CC(=CC=C2)N(C)C)NC(=O)C3=CC=C(C=C3)O
Method in brief: as §1

[12] = compound: CC(=O)c1cnc2ccc(-c3cc(Cl)c(O)c(Cl)c3)nc2c1N[C@H]1CC[C@H](CN(C)C)CC1
Method in brief: as §1

[13] = compound: CC1=CC=C(C=C1)SC2=C3C=C(SC3=CN=C2)C(=O)N
Method in brief: as §1

[14] = compound: C/C(=N\NC(=O)C1=CC(=CC=C1)S(=O)(=O)N2CCOCC2)/C3=C(C=CC(=C3)Cl)O
Method in brief: as §1

[15] = compound: C1=CC2=C(C=CC(=C2)/C=C\3/C(=O)NC(=NCC4=CC=CS4)S3)N=C1
Method in brief: as §1

[16] = compound: C1=CC=C2C(=C1)C3=NNC4=CC=CC(=C43)C2=O
Method in brief: as §1

Measured: log2 fold change

CCND3 (UniProt P30281)
inactive: erlotinib -0.034 | [1] 0.064 | [2] -0.03 | [3] 0.106 | [4] -0.228 | [5] 0.116 | IRAK-1-4 Inhibitor I 0.033 | ibrutinib 0.122 | ralimetinib 0.039 | [6] 0 | [7] 0.032 | [8] -0.104 | [9] -0.063 | [10] -0.021 | [11] -0.067

CCDC130 (UniProt P13994)
inactive: erlotinib -0.045 | [1] 0.28 | [2] 0.032 | [3] -0.224 | [4] -0.152 | [5] -0.016 | IRAK-1-4 Inhibitor I 0.025 | ibrutinib -0.232 | ralimetinib 0.181 | [6] 0.077 | [7] -0.112 | [10] 0.252 | [11] 0.072

CAV2 (UniProt P51636)
inactive: erlotinib -0.016 | [1] -0.018 | [3] 0.099 | IRAK-1-4 Inhibitor I -0.064 | [12] 0.007 | ralimetinib 0.01 | [6] -0.235 | [7] -0.13 | [9] 0.061 | [10] -0.008 | [11] 0.078 | [13] 0.114

CD80 (UniProt P33681)
inactive: erlotinib -0.139 | [14] 0.041 | [1] 0.063 | [15] -0.013 | [3] -0.087 | [16] -0.02 | [4] 0.058 | [5] -0.029 | IRAK-1-4 Inhibitor I 0.096 | [12] 0.034 | ralimetinib 0.207 | [6] -0.051 | [7] -0.136 | [8] 0.106 | [9] -0.084 | [10] 0.043 | [11] -0.119 | [13] 0.014

CD276 (UniProt Q5ZPR3)
inactive: erlotinib 0.019 | [1] -0.014 | [3] -0.049 | IRAK-1-4 Inhibitor I 0.051 | ralimetinib -0.145 | [6] -0.114 | [7] -0.043 | [11] 0.151

CD68 (UniProt P34810)
inactive: erlotinib 0.02 | [1] -0.033 | [4] 0.325 | [5] -0.377 | [7] 0.049 | [10] 0.025

CCDC127 (UniProt Q96BQ5)
inactive: erlotinib -0.014 | [1] -0.044 | [2] -0.025 | [3] -0.043 | [4] 0.049 | [5] -0.026 | IRAK-1-4 Inhibitor I 0.029 | ibrutinib 0.021 | [12] 0.062 | ralimetinib 0.002 | [6] -0.043 | [7] 0.014 | [9] -0.028 | [10] -0.111 | [11] 0.02 | [13] -0.055

CCP110 (UniProt O43303)
active: [14] -0.436
inactive: erlotinib 0.081 | [1] 0.046 | [15] -0.022 | [2] 0.03 | [3] -0.088 | [16] -0.047 | [4] -0.051 | [5] 0.051 | IRAK-1-4 Inhibitor I 0.075 | ibrutinib -0.008 | ralimetinib 0.082 | [6] 0.001 | [7] 0.054 | [9] -0.186 | [10] 0.01 | [11] 0.113

CD164 (UniProt Q04900)
inactive: erlotinib -0.011 | [1] 0.27 | [7] -0.011 | [10] 0.123

CCDC50 (UniProt Q8IVM0)
inactive: erlotinib -0.065 | [1] 0.089 | [2] 0.092 | [3] 0.144 | [4] -0.09 | [5] -0.032 | IRAK-1-4 Inhibitor I 0.115 | ibrutinib 0.116 | [12] 0.089 | ralimetinib -0.051 | [6] -0.048 | [7] -0.056 | [8] 0.022 | [10] -0.071 | [11] -0.007 | [13] 0.164

CCDC102A (UniProt Q96A19)
inactive: erlotinib 0.194 | [14] 0.087 | [1] -0.207 | [15] 0.087 | [2] -0.031 | [16] 0.004 | [4] -0.255 | [5] 0.024 | ibrutinib 0.142 | [7] 0.073 | [10] 0.076

CD53 (UniProt P19397)
inactive: erlotinib 0.001 | [14] 0.041 | [1] -0.019 | [15] -0.031 | [2] 0.095 | [3] -0.058 | [16] -0.061 | [4] -0.072 | [5] 0.032 | IRAK-1-4 Inhibitor I 0.044 | ibrutinib 0.055 | [12] 0.03 | ralimetinib -0.009 | [6] -0.188 | [7] -0.102 | [8] -0.018 | [10] 0 | [11] -0.045 | [13] 0.039

CD44 (UniProt P16070)
inactive: erlotinib -0.07 | [1] 0.05 | [4] -0.01 | [5] 0.026 | [7] -0.181 | [8] -0.015

2 consecutive entries out of the list so far, for reference:
CCDC102A (UniProt Q96A19)
inactive: erlotinib 0.194 | [14] 0.087 | [1] -0.207 | [15] 0.087 | [2] -0.031 | [16] 0.004 | [4] -0.255 | [5] 0.024 | ibrutinib 0.142 | [7] 0.073 | [10] 0.076

CD53 (UniProt P19397)
inactive: erlotinib 0.001 | [14] 0.041 | [1] -0.019 | [15] -0.031 | [2] 0.095 | [3] -0.058 | [16] -0.061 | [4] -0.072 | [5] 0.032 | IRAK-1-4 Inhibitor I 0.044 | ibrutinib 0.055 | [12] 0.03 | ralimetinib -0.009 | [6] -0.188 | [7] -0.102 | [8] -0.018 | [10] 0 | [11] -0.045 | [13] 0.039
